US11220671B2, “Methods for the maturation of cardiomyocytes on amniotic fluid cell-derived ECM, cellular constructs, and uses for cardiotoxicity and proarrhythmic screening of drug compounds” (STEMBIOSYS, INC., priority 2019, dated 2022)

Experiment: Composition of amniotic fluid cell-derived ECM by mass spectrometry (total spectra count)

| Molecule | Total Spectra Count Matrix A (amniotic fluid cell-derived ECM Matrix A, mass spectrometry, label = protein component) | Total Spectra Count Matrix B (amniotic fluid cell-derived ECM Matrix B, mass spectrometry, label = protein component) | Total Spectra Count Matrix C (amniotic fluid cell-derived ECM Matrix C, mass spectrometry, label = protein component) | Total Spectra Count Matrix D (amniotic fluid cell-derived ECM Matrix D, mass spectrometry, label = protein component) | Total Spectra Count Matrix A (protein component found by mass spectrometry in amniotic fluid cell-derived ECM Matrix A (Example 1)) | Total Spectra Count Matrix B (protein component found by mass spectrometry in amniotic fluid cell-derived ECM Matrix B (Example 1)) | Total Spectra Count Matrix C (protein component found by mass spectrometry in amniotic fluid cell-derived ECM Matrix C (Example 1)) | Total Spectra Count Matrix D (protein component found by mass spectrometry in amniotic fluid cell-derived ECM Matrix D (Example 1)) |
| --- | --- | --- | --- | --- | --- | --- | --- | --- |
| Metastasis-associated protein MTA2 (protein, UniProt O94776 1-668, looked up) Metastasis-associated protein …: MAANMYRVGDYVYFENSSSNPYLVRRIEELNKTANGNVEAKVVCLFRRRDISSSLNSLADSNAREFEEESKQPGVSEQQRHQLKHRELFLSRQFESLPATHIRGKCSVTLLNETDILSQYLEKEDCFFYSLVFDPVQKTLLADQGEIRVGCKYQAEIPDRLVEGESDNRNQQKMEMKVWDPDNPLTDRQIDQFLVVARAVGTFARALDCSSSIRQPSLHMSAAAASRDITLFHAMDTLQRNGYDLAKAMSTLVPQGGPVLCRDEMEEWSASEAMLFEEALEKYGKDFNDIRQDFLPWKSLASIVQFYYMWKTTDRYIQQKRLKAAEADSKLKQVYIPTYTKPNPNQIISVGSKPGMNGAGFQKGLTCESCHTTQSAQWYAWGPPNMQCRLCASCWIYWKKYGGLKTPTQLEGATRGTTEPHSRGHLSRPEAQSLSPYTTSANRAKLLAKNRQTFLLQTTKLTRLARRMCRDLLQPRRAARRPYAPINANAIKAECSIRLPKAAKTPLKIHPLVRLPLATIVKDLVAQAPLKPKTPRGTKTPINRNQLSQNRGLGGIMVKRAYETMAGAGVPFSANGRPLASGIRSSSQPAAKRQKLNPADAPNPVVFVATKDTRALRKALTHLEMRRAARRPNLPLKVKPTLIAVRPPVPLPAPSHPASTNEPIVLED | 0 | 5 | 0 | 0 | – | – | – | – |
| ATP-citrate synthase (protein, UniProt P53396 1-1101, looked up) ATP-citrate synthase: MSAKAISEQTGKELLYKFICTTSAIQNRFKYARVTPDTDWARLLQDHPWLLSQNLVVKPDQLIKRRGKLGLVGVNLTLDGVKSWLKPRLGQEATVGKATGFLKNFLIEPFVPHSQAEEFYVCIYATREGDYVLFHHEGGVDVGDVDAKAQKLLVGVDEKLNPEDIKKHLLVHAPEDKKEILASFISGLFNFYEDLYFTYLEINPLVVTKDGVYVLDLAAKVDATADYICKVKWGDIEFPPPFGREAYPEEAYIADLDAKSGASLKLTLLNPKGRIWTMVAGGGASVVYSDTICDLGGVNELANYGEYSGAPSEQQTYDYAKTILSLMTREKHPDGKILIIGGSIANFTNVAATFKGIVRAIRDYQGPLKEHEVTIFVRRGGPNYQEGLRVMGEVGKTTGIPIHVFGTETHMTAIVGMALGHRPIPNQPPTAAHTANFLLNASGSTSTPAPSRTASFSESRADEVAPAKKAKPAMPQDSVPSPRSLQGKSTTLFSRHTKAIVWGMQTRAVQGMLDFDYVCSRDEPSVAAMVYPFTGDHKQKFYWGHKEILIPVFKNMADAMRKHPEVDVLINFASLRSAYDSTMETMNYAQIRTIAIIAEGIPEALTRKLIKKADQKGVTIIGPATVGGIKPGCFKIGNTGGMLDNILASKLYRPGSVAYVSRSGGMSNELNNIISRTTDGVYEGVAIGGDRYPGSTFMDHVLRYQDTPGVKMIVVLGEIGGTEEYKICRGIKEGRLTKPIVCWCIGTCATMFSSEVQFGHAGACANQASETAVAKNQALKEAGVFVPRSFDELGEIIQSVYEDLVANGVIVPAQEVPPPTVPMDYSWARELGLIRKPASFMTSICDERGQELIYAGMPITEVFKEEMGIGGVLGLLWFQKRLPKYSCQFIEMCLMVTADHGPAVSGAHNTIICARAGKDLVSSLTSGLLTIGDRFGGALDAAAKMFSKAFDSGIIPMEFVNKMKKEGKLIMGIGHRVKSINNPDMRVQILKDYVRQHFPATPLLDYALEVEKITTSKKPNLILNVDGLIGVAFVDMLRNCGSFTREEADEYIDIGALNGIFVLGRSMGFIGHYLDQKRLKQGLYRHPWDDISYVLPEHMSM | – | – | – | – | 22 | 20 | 2 | 18 |
